# The list shows a part of the results.
# B1: Drgal1 (Danio rerio) (protein)
# chain: MAGVLIQNMSFKVGQTLTITGVPKPDSTNFAINIGHSPEDIALHMNPRFDAHGDQCTIVCNSFQSGSWCEEHRDDNFPFIQDKEFQIKITFTNEEFLVTLPDGSEIHFPNRQGSEKYKYMYFEGEVRIQGVEIK
# Assays:
# Assay in all cases: glycan array binding signal (z-score within array); higher = stronger binding
# Settings in all cases: glycan notation: IUPAC condensed, linker removed
# [1] = biological target: Gal(b1-4)GlcNAc(b1-3)Gal(b1-4)GlcNAc(b1-3)Gal(b1-4)GlcNAc(b1-3)Gal(b1-4)GlcNAc(b1-2)Man(a1-3)[Gal(b1-4)GlcNAc(b1-3)Gal(b1-4)GlcNAc(b1-3)Gal(b1-4)GlcNAc(b1-3)Gal(b1-4)GlcNAc(b1-2)Man(a1-6)]Man(b1-4)GlcNAc(b1-4)GlcNAc
# Summary of the method: (§1)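 Glycan array data came from 3228 arrays in the Consortium for Functional Glycomics database, and only arrays with an available protein sequence were kept. Glycan names were put into IUPAC-condensed notation, and columns mapping to the same glycan were averaged. The binding signal is a within-array Z-score, averaged across arrays of one protein sequence run at different concentrations or buffers and across linkers. A negative Z-score can be read as non-binding.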
# [2] = biological target: Gal(b1-4)GlcNAc(b1-3)Gal(b1-4)GlcNAc(b1-3)Gal(b1-4)GlcNAc(b1-3)Gal(b1-4)GlcNAc(b1-2)Man(a1-3)[Gal(b1-4)GlcNAc(b1-3)Gal(b1-4)GlcNAc(b1-3)Gal(b1-4)GlcNAc(b1-3)Gal(b1-4)GlcNAc(b1-2)Man(a1-6)]Man(b1-4)GlcNAc(b1-4)[Fuc(a1-6)]GlcNAc
# Summary of the method: as §1
# [3] = biological target: Gal(b1-4)GlcNAc(b1-3)Gal(b1-4)GlcNAc(b1-3)Gal(b1-4)GlcNAc(b1-3)Gal(b1-4)GlcNAc(b1-2)[Gal(b1-4)GlcNAc(b1-3)Gal(b1-4)GlcNAc(b1-3)Gal(b1-4)GlcNAc(b1-3)Gal(b1-4)GlcNAc(b1-6)]Man(a1-6)[Gal(b1-4)GlcNAc(b1-3)Gal(b1-4)GlcNAc(b1-3)Gal(b1-4)GlcNAc(b1-3)Gal(b1-4)GlcNAc(b1-2)Man(a1-3)]Man(b1-4)GlcNAc(b1-4)[Fuc(a1-6)]GlcNAc
# Summary of the method: as §1
# [4] = biological target: Gal(b1-4)GlcNAc(b1-3)Gal(b1-4)GlcNAc(b1-3)Gal(b1-4)GlcNAc(b1-3)Gal(b1-4)GlcNAc(b1-3)Gal(b1-4)GlcNAc(b1-2)Man(a1-3)[Gal(b1-4)GlcNAc(b1-3)Gal(b1-4)GlcNAc(b1-3)Gal(b1-4)GlcNAc(b1-3)Gal(b1-4)GlcNAc(b1-3)Gal(b1-4)GlcNAc(b1-2)Man(a1-6)]Man(b1-4)GlcNAc(b1-4)GlcNAc
# Summary of the method: as §1
# [5] = biological target: Gal(b1-4)GlcNAc(b1-3)Gal(b1-4)GlcNAc(b1-3)Gal(b1-4)GlcNAc(b1-3)Gal(b1-4)GlcNAc(b1-3)Gal(b1-4)GlcNAc(b1-2)Man(a1-3)[Gal(b1-4)GlcNAc(b1-3)Gal(b1-4)GlcNAc(b1-3)Gal(b1-4)GlcNAc(b1-3)Gal(b1-4)GlcNAc(b1-3)Gal(b1-4)GlcNAc(b1-2)Man(a1-6)]Man(b1-4)GlcNAc(b1-4)[Fuc(a1-6)]GlcNAc
# Summary of the method: as §1
# [6] = biological target: Gal(b1-4)GlcNAc(b1-3)Gal(b1-4)GlcNAc(b1-3)Gal(b1-4)GlcNAc(b1-3)Gal(b1-4)GlcNAc(b1-3)Gal(b1-4)GlcNAc(b1-2)[Gal(b1-4)GlcNAc(b1-3)Gal(b1-4)GlcNAc(b1-3)Gal(b1-4)GlcNAc(b1-3)Gal(b1-4)GlcNAc(b1-3)Gal(b1-4)GlcNAc(b1-6)]Man(a1-6)[Gal(b1-4)GlcNAc(b1-3)Gal(b1-4)GlcNAc(b1-3)Gal(b1-4)GlcNAc(b1-3)Gal(b1-4)GlcNAc(b1-3)Gal(b1-4)GlcNAc(b1-2)Man(a1-3)]Man(b1-4)GlcNAc(b1-4)[Fuc(a1-6)]GlcNAc
# Summary of the method: as §1
# [7] = biological target: Gal(b1-4)GlcNAc(b1-3)Gal(b1-4)GlcNAc(b1-3)Gal(b1-4)GlcNAc(b1-3)Gal(b1-4)GlcNAc(b1-3)Gal(b1-4)GlcNAc(b1-3)Gal(b1-4)GlcNAc(b1-2)Man(a1-3)[Gal(b1-4)GlcNAc(b1-3)Gal(b1-4)GlcNAc(b1-3)Gal(b1-4)GlcNAc(b1-3)Gal(b1-4)GlcNAc(b1-3)Gal(b1-4)GlcNAc(b1-3)Gal(b1-4)GlcNAc(b1-2)Man(a1-6)]Man(b1-4)GlcNAc(b1-4)GlcNAc
# Summary of the method: as §1
# [8] = biological target: Gal(b1-4)GlcNAc(b1-3)Gal(b1-4)GlcNAc(b1-3)GalNAc
# Summary of the method: as §1
# [9] = biological target: Gal(b1-4)GlcNAc(b1-3)Gal(b1-4)GlcNAc(b1-3)[Gal(b1-4)GlcNAc(b1-3)Gal(b1-4)GlcNAc(b1-6)]GalNAc
# Summary of the method: as §1
# [10] = biological target: Gal(b1-4)GlcNAc(b1-3)Gal(b1-4)GlcNAc(b1-6)[Gal(b1-3)]GalNAc
# Summary of the method: as §1
# [11] = biological target: Gal(b1-4)GlcNAc(b1-3)Gal(b1-4)[Fuc(a1-3)]GlcNAc(b1-3)Gal(b1-4)[Fuc(a1-3)]GlcNAc
# Summary of the method: as §1
# [12] = biological target: Gal(b1-4)GlcNAc(b1-3)GalNAc
# Summary of the method: as §1
# [13] = biological target: Gal(b1-4)GlcNAc(b1-3)[Fuc(a1-3)GlcNAc(b1-6)]Gal(b1-4)Glc
# Summary of the method: as §1
# [14] = biological target: Gal(b1-4)GlcNAc(b1-3)[Gal(b1-4)GlcNAc(b1-6)]Gal(b1-4)GlcNAc
# Summary of the method: as §1
# [15] = biological target: Gal(b1-4)GlcNAc(b1-3)[GlcNAc(b1-6)]Gal(b1-4)GlcNAc
# Summary of the method: as §1
# [16] = biological target: Gal(b1-4)GlcNAc(b1-6)Gal(b1-4)GlcNAc
# Summary of the method: as §1
# [17] = biological target: Gal(b1-4)GlcNAc(b1-6)GalNAc
# Summary of the method: as §1
# [18] = biological target: Gal(b1-4)GlcNAc(b1-6)[Gal(b1-3)]GalNAc
# Summary of the method: as §1
# [19] = biological target: Gal(b1-4)GlcNAc(b1-6)[Gal(b1-4)GlcNAc(b1-3)]GalNAc
# Summary of the method: as §1
# Gal(b1-4)GlcNAc6P = biological target: Gal(b1-4)GlcNAc6P
# Summary of the method: as §1
# Gal(b1-6)Gal = biological target: Gal(b1-6)Gal
# Summary of the method: as §1
# Gal3S(b1-3)GalNAc = biological target: Gal3S(b1-3)GalNAc
# Summary of the method: as §1
# Gal3S(b1-3)GlcNAc = biological target: Gal3S(b1-3)GlcNAc
# Summary of the method: as §1
binder,measurement,setting,value
B1,glycan array binding signal (z-score),[1],1.46
same,glycan array binding signal (z-score),[2],1.5
same,glycan array binding signal (z-score),[3],2.07
same,glycan array binding signal (z-score),[4],7.35
same,glycan array binding signal (z-score),[5],1.72
same,glycan array binding signal (z-score),[6],2.15
same,glycan array binding signal (z-score),[7],1.42
same,glycan array binding signal (z-score),[8],0.766
same,glycan array binding signal (z-score),[9],0.887
same,glycan array binding signal (z-score),[10],0.322
same,glycan array binding signal (z-score),[11],1.1
same,glycan array binding signal (z-score),[12],-0.56
same,glycan array binding signal (z-score),[13],0.64
same,glycan array binding signal (z-score),[14],0.112
same,glycan array binding signal (z-score),[15],0.038
same,glycan array binding signal (z-score),[16],0.065
same,glycan array binding signal (z-score),[17],-0.125
same,glycan array binding signal (z-score),[18],0.099
same,glycan array binding signal (z-score),[19],0.497
same,glycan array binding signal (z-score),Gal(b1-4)GlcNAc6P,-0.128
same,glycan array binding signal (z-score),Gal(b1-6)Gal,-1.04
same,glycan array binding signal (z-score),Gal3S(b1-3)GalNAc,-0.521
same,glycan array binding signal (z-score),Gal3S(b1-3)GlcNAc,0.034

# 2 successive records from above:
binder,measurement,setting,value
B1,glycan array binding signal (z-score),[12],-0.56
same,glycan array binding signal (z-score),[13],0.64
